PMC3873232
No constants are given. Whether binding was seen depends on the method and setting. For some assays here: Binding seen in cells or lysates may run through a third protein. For some assays here: Sequences can lack the tags named with a protein. Values belong to the molecule of their own block, whether it stands above or below them.

What was measured:
[1] = target: T1, Thr1-P form of the Spt5 CTD peptide (S. pombe); assay: pull-down; biotinylated peptides (50 µg) on streptavidin Dynabeads incubated with 50-200 ng TAP-purified factor in 200 µl (20 mM Hepes pH 7.6, 37.5 mM KOAc, 2.5 mM MgOAc, 5% glycerol, 0.075% Triton X-100), 4°C, 1 h; washes with 250 mM KOAc; immunoblot with a TAP antibody; percent bound by ImageJ; both …
T1 sequence (peptide, biotin on the N-terminus; both Thr residues phosphorylated): GSKTPAWNSGSKTPAWNS

Prf1-TAP (S. pombe) = assay: co-IP; single-step TAP purification: whole cell extracts incubated with IgG-sepharose beads to isolate Prf1-TAP; bound material analysed by SDS-PAGE and western blotting

binding [1]: no binding (tested: 200 ng in 200 µl)
Molecule: PAF complex purified from the tpr1-TAP strain (S. pombe)

binding (Prf1-TAP (S. pombe)): no binding
B1: Tpr1-13xmyc (protein, UniProt O42668 1-1039)
chain: MEGFTLETHASRIIEVPLLGQEDQSVEIDCSSLPSDATELCEILVNEQAPREFWTKFAHEYYIRGLREQAILILKSGLETLKDSESLCILNANIAAIYLSMAREAMLKKDTDLRDEQLRNVRTYLEAANNIDSKSEINVLLHGIYRILLNPTDKESLENAARCFDFVLQKSGGNILGFLGKARILYAKGNYRSALKLYQRALVSNPQFKPDPRIGIGLCFWNLDMKTDALSAWTRVQQLDPKNTVVDTYIGLYYYDLAFQNVNNDSFVQNYGKALQHIQRAFKTRNNDPVASSILERYVYSKKNYEGCIKLAENVIQNSFSSSLIADGYYWMGRAYHQMGNNEKAMASYQKAKAADDRHLLSSVGIGQIQILQNDLTSAKLTFERIAEQNQSCFEALVVLGCLHASDSKPDLTKARMLLDRAFNLVGSSKLPRVVDSDLYITQARLWEKEDTKKSLGFLTRALDFLESAHMSVGPELLNNIAVLQYHLGLIPEAHGNIIKAKSVLPDANPELSLLLDYNLARCEEELGNTSVASEAYVSILEKHPSFIDARIRKCLLQLSNPNEETFKEIRHIMNADSQNLEVRAFFGWYLSKQKRRPVEDPEVRHCSQTLRHWHDDIYSLVQLGNAYMRQAREFRVHNDREKLKRQKLYIKAIQSYDQAIKFDPKNAHAAQGIAIILAQNRQFSKALLILSKVREAIKDATTLINIGNCLAELKQFSRAIEVFETVYSSTGESDTYGVLSCLGRVWLQRGRESKNVDYLKESVRYATLALEKNPENPSLLFNVAFVQFQLCELIRQKPENSRTVEDLNFAMQQLDASIETFTKLVSVEHPPYSPTSIEQRAKMAKNTTKRQLERAIQAQIEYEKSVAAKLEDARIQREKEKARRLAEEEALLKEKQERERQLQEERQKMQEEVLEWRKSQQKASEDDMSLSDDEEKQSGKKKKKDRKKRKSKSKQESSDSGVSEDDEIPLSDARNKTKKRRVNRRVISEEYTFDQDSDAEGNQEEEVSRTIEEKQDNDITDNQDDNKELNLFSEEDEE
